Data taken from paper PMC6213189, “ABD-Derived Protein Blockers of Human IL-17 Receptor A as Non-IgG Alternatives for Modulation of IL-17-Dependent Pro-Inflammatory Axis” (International Journal of Molecular Sciences, 2018).
Results are given in words; binding and its absence hold for the method and conditions named. Some entries that bind do so weakly or less than the wild type. For some assays here: Sequences can lack the tags named with a protein. One block for each molecule: values may come before it.

Chains of the proteins cited; added tags and fusions are not shown. Lines headed by an entry give the natural chain unless they say otherwise; changes in a name come on top. Residues count along the entry.
UniProt Q96F46: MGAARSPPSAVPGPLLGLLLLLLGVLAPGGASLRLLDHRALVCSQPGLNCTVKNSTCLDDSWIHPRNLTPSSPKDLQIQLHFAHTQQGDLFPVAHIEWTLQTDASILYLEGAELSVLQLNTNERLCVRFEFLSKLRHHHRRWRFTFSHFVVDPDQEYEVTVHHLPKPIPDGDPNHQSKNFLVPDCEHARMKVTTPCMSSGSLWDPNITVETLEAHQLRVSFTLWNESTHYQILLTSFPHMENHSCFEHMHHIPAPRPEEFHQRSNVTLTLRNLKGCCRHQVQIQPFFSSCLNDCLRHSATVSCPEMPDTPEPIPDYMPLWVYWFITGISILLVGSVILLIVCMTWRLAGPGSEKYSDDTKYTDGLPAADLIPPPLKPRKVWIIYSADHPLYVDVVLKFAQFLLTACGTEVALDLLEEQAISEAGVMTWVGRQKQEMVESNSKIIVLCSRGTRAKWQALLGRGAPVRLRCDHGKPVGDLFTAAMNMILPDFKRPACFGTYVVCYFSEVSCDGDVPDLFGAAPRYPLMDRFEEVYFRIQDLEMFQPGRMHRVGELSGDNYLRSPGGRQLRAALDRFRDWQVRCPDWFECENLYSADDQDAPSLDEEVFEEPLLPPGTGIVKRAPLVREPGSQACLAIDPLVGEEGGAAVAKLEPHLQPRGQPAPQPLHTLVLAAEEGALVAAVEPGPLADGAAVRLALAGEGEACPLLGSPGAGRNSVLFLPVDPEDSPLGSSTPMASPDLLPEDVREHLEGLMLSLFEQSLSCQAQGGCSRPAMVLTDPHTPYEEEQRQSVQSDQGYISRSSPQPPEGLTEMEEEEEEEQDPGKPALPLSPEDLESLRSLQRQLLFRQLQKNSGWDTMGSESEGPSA
human IL-17RA on the cell surface (human (endogenous in THP-1 and HaCaT)): residues 33-866 of Q96F46
extracellular part of the human IL-17RA (IL-17RAex): residues 33-320 of Q96F46
UniProt Q16552, residues 24-155: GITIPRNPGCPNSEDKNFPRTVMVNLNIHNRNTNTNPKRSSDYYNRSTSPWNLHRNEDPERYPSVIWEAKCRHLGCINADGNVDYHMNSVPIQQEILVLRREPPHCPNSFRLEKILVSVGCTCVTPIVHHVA

Assays:
[1] = target: extracellular part of the human IL-17RA (IL-17RAex) (human) (UniProt Q96F46); assay: ELISA; soluble IL-17RAex (purified under native conditions) tested with human IL-17A; Figure S1B; set-up not told further; both purified
[2] = target: human IL-17RA on the cell surface (human (endogenous in THP-1 and HaCaT)) (UniProt Q96F46); assay: flow cytometry on cells; cell-surface competition: ARS ligands against human IL-17A for binding to THP-1 cells; Figure S5; only the binder purified
[3] = target: extracellular part of the human IL-17RA (IL-17RAex) (human) (UniProt Q96F46); assay: ELISA; competition: purified short His6-ARS-AviTag variants against IL-17A for binding to IL-17RA; Figure S4; which IL-17RA form was coated is not said; both purified
[4] = target: extracellular part of the human IL-17RA (IL-17RAex) (human) (UniProt Q96F46); assay: ELISA; IL-17RAex purified from the insoluble fraction in urea, diluted in coating buffer and refolded on the Polysorp plate by washes with PBS, tested with human IL-17A; Figure S1B; both purified
[5] = target: Recombinant Human IL-17 RA/IL-17 R Fc Chimera (human) (UniProt Q96F46); assay: ELISA; competition: IL-17RA-IgG chimera coated; 10 nM IL-17A with serially diluted His6-ARS-TolA-AVI in PBSTB; bound IL-17A detected with anti-IL-17A polyclonal antibody and anti-IgG-HRP; both purified
[6] = target: extracellular part of the human IL-17RA (IL-17RAex) (human) (UniProt Q96F46); assay: ELISA; competition: recombinant IL-17RA from E. coli SHuffle coated at 5 µg/mL; 10 nM IL-17A with serially diluted His6-ARS-TolA-AVI in PBSTB; bound IL-17A detected with anti-IL-17 polyclonal antibody; Figure S2; both purified
[7] = target: human IL-17RA on the cell surface (human (endogenous in THP-1 and HaCaT)) (UniProt Q96F46); assay: flow cytometry on cells; 2.5 x 10^5 THP-1 cells with biotinylated His6-ARS-TolA-AVI (10 µg/mL by the legend) for 30 min at 4 °C in cHBSS; streptavidin-PE; only the binder purified

binding [1]: binds
binding [2]: binds
binding [3]: binds
binding [4]: binds
binding [5]: binds
binding [6]: binds
Molecule: Human IL-17A (from UniProt Q16552 24-155) (ligand)

binding [7]: binds
Molecule: LAEAKVLANRELDKYGVSDMYKNVINIAWWVSIVKYPIDCILALLP (designed binder, biotin on the AviTag (in vivo biotinylated)) [His6-ARS019-TolA-AVI]

binding [7]: binds
Molecule: LAEAKVLANRELDKYGVSDLYKNMINMALWVTGVKWLIDPILATLP (designed binder, biotin on the AviTag (in vivo biotinylated)) [His6-ARS043-TolA-AVI]

binding [7]: binds
Molecule: LAEAKVLANRELDKYGVSDVYKLINYACPVTWVKWVIDPILAMLP (designed binder, biotin on the AviTag (in vivo biotinylated)) [His6-ARS004-TolA-AVI]

binding [7]: binds
Molecule: LAEAKVLANRELDKYGVSDVYKLINMALYVTGVKPWIDVILAVLP (designed binder, biotin on the AviTag (in vivo biotinylated)) [His6-ARS012-TolA-AVI]

binding [7]: binds
Molecule: LAEAKVLANRELDKYGVSDVYKNLINYAWLVMWVPIDAILALLP (designed binder, biotin on the AviTag (in vivo biotinylated)) [His6-ARS014-TolA-AVI]
